This is an account of results in patent US20080057516A1 (published 2008).

No constants are given. Whether binding was seen depends on the method and setting. Some entries that bind do so weakly or less than the wild type.

Test [1] has as its target Syndecan-3 ectodomain purified from early postnatal rat brain (rat) (UniProt P33671). Nature of the test: SPR (IAsys), legend of FIG. 2.
The target is the same in test [2]. Nature of the test: conclusion from SPR and cross-linking experiments.
Test [3] has the same target. Nature of the test: SPR (IAsys), GFLs immobilised, syndecan-3 ectodomain in solution.
Test [4] deals with T1, Syndecan-3 on rat cells (glioma C6 cell line; E17 hippocampal neurons) (rat), P33671.
T1 chain: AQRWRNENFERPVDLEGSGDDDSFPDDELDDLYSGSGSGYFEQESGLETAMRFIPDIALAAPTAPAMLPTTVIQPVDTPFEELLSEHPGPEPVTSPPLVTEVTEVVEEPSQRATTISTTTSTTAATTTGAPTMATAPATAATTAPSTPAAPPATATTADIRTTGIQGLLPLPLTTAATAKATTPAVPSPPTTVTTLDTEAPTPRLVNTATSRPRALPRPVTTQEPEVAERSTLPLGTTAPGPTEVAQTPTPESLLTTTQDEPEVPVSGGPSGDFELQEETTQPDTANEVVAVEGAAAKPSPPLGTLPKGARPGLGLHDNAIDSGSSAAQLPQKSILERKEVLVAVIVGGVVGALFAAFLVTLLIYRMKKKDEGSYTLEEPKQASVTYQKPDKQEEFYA
Nature of the test: competition with 125I-GDNF on C6 cells; 150-fold molar excess; cross-linking and anti-syndecan-3 immunoprecipitation. As to conditions: remark: other sources report otherwise.

In test [5] the target is Syndecan-3 ectodomain purified from early postnatal rat brain (rat) (UniProt P33671). The experiment in a line: SPR (IAsys optical biosensor): PSPN immobilized on the aminosilane cuvette, syndecan-3 ectodomain (S3) in solution.
Test [6] has the same target. Nature of the test: SPR (IAsys), GFLs immobilised, syndecan-3 ectodomain in solution; patent's own conclusion from the same IAsys experiment: weak binding, not quantified.

B1: Artemin (ARTN) (ligand, UniProt Q5T4W7 108-220, looked up)
chain: AGGPGSRARAAGARGCRLRSQLVPVRALGLGHRSDELVRFRFCSGSCRRARSPHDLSLASLLGAGALRPPPGSRPVSQPCCRPTRYEAVSFMDVNSTWRTVDRLSATACGCLG
For B1, the binding result in test [1], in test [2] and in test [3] was “binds” throughout.

B2: HB-GAM (heparin-binding growth-associated molecule), P63090 33-168 (ligand)
chain: GKKEKPEKKVKKSDCGEWQWSVCVPTSGDCGLGTREGTRTGAECKQTMKTQRCKIPCNWKKQFGAECKYQFQAWGECDLNTALKTRTGSLKRALHNADCQKTVTISKPCGKLTKPKPQAESKKKKKEGKKQEKMLD
modifications: here or on the partner: heparan sulfate (HS) chains; attachment residues not stated
B2: the binding result in test [4] is recorded as “binds”.

B3: Neurturin (NRTN) (ligand, UniProt Q99748 96-197, looked up)
chain: ARLGARPCGLRELEVRVSELGLGYASDETVLFRYCAGACEAAARVYDLGLRRLRQRRRLRRERVRAQPCCRPTAYEDEVSFLDAHSRYHTVHELSARECACV
For B3, the binding result in test [1], in test [2] and in test [3] was “binds” in each case.

B4: Glial cell line-derived neurotrophic factor (GDNF) (ligand, UniProt P39905 78-211, looked up)
chain: SPDKQMAVLPRRERNRQAAAANPENSRGKGRRGQRGKNRGCVLTAIHLNVTDLGLGYETKEELIFRYCSGSCDAAETTYDKILKNLSRNRRLVSDKVGQACCRPIAFDDDLSFLDDNLVYHILRKHSAKRCGCI
notes: Immobilised on an aminosilane cuvette for SPR, or coated on plastic, glass or filters for the cell assays; also called wtGDNF; unlabeled (Cold) GDNF
As to B4, the binding entry in test [1], in test [2] and in test [3] was “binds” in each case.

B5: Persephin (PSPN) (ligand, UniProt O60542 61-156, looked up)
chain: ALSGPCQLWSLTLSVAELGLGYASEEKVIFRYCAGSCPRGARTQHGLALARLQGQGRAHGGPCCRPTRYTDVAFLDDRHRWQRLPQLSAAACGCGG
On to B5, for which the binding entry in test [5] and in test [6] was “binds” throughout.
